Reference: publication PMC3828177
Results are given in words; binding and its absence hold for the method and conditions named. Binding seen in cells or lysates may run through a third protein. Some results given as binding are weak or reduced against the parent protein; the word gives no strength. Where a sequence is shown, tags or fusion partners need not be part of it.

Experiments:
Assay in all cases: co-IP; H1299 expressing FLAG-B55α species in the absence and presence of HA-E4orf4; anti-FLAG precipitation, blot with anti-p107 (endogenous p107)
FLAG-B55α D340K (rat) = target: T1, FLAG-B55α D340K (rat) (UniProt P36876)
T1 sequence: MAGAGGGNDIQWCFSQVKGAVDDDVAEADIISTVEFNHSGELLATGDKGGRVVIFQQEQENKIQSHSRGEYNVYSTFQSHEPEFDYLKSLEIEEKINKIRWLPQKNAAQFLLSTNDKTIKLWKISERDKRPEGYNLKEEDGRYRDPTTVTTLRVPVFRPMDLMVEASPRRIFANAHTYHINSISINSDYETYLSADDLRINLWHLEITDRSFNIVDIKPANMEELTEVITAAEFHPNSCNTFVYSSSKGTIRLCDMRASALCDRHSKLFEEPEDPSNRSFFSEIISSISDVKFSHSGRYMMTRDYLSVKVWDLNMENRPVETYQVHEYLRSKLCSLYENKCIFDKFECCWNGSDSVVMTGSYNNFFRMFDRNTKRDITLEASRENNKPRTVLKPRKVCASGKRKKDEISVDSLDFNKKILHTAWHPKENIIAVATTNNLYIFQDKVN

[1] = target: T2, FLAG-B55α (wild type) (rat) (UniProt P36876)
T2 sequence: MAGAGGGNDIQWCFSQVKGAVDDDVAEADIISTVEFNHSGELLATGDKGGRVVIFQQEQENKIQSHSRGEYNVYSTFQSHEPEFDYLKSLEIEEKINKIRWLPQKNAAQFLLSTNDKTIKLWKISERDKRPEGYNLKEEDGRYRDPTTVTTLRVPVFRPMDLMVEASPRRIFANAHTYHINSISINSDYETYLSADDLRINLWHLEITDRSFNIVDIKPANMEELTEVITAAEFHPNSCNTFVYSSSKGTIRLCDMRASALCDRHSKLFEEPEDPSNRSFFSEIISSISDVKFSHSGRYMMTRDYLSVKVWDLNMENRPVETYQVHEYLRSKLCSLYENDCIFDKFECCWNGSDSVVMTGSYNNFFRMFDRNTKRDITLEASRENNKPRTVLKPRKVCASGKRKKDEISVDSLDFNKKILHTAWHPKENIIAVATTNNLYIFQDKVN

FLAG-B55α D197K (rat) = target: T3, FLAG-B55α D197K (rat) (UniProt P36876)
T3 sequence: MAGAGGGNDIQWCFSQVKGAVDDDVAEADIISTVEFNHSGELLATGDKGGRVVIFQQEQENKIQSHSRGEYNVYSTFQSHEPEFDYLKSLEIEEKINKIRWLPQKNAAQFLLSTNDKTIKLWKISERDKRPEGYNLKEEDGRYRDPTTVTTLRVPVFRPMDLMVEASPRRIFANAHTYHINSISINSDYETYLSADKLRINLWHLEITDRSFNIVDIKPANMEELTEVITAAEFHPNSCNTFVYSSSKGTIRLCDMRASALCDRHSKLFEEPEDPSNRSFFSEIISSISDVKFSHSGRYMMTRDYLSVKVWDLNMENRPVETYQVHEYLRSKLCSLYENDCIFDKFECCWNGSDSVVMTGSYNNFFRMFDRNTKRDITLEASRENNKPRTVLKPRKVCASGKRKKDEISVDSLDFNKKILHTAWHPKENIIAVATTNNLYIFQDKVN

[2] = target: T4, FLAG-B55α E91A/E93A/E94A/F343A (rat) (UniProt P36876)
T4 sequence: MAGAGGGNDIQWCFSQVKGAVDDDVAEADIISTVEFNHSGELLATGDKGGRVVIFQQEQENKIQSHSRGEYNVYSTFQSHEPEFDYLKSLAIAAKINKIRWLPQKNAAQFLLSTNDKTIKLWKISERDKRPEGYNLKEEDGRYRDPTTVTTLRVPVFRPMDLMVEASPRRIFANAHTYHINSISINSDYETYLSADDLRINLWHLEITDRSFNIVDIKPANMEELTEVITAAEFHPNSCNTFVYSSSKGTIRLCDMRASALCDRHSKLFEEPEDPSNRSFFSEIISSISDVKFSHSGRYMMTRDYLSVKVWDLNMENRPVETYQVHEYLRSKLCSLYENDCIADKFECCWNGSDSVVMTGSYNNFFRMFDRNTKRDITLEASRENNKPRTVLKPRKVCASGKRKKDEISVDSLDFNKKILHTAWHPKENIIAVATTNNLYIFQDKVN

- binding (FLAG-B55α D340K (rat)): binds
- binding [1]: binds
- binding (FLAG-B55α D197K (rat)): no binding
- binding [2]: binds
B1: p107 (endogenous) (protein, UniProt P28749 1-1068)
chain: MFEDKPHAEGAAVVAAAGEALQALCQELNLDEGSAAEALDDFTAIRGNYSLEGEVTHWLACSLYVACRKSIIPTVGKGIMEGNCVSLTRILRSAKLSLIQFFSKMKKWMDMSNLPQEFRERIERLERNFEVSTVIFKKYEPIFLDIFQNPYEEPPKLPRSRKQRRIPCSVKDLFNFCWTLFVYTKGNFRMIGDDLVNSYHLLLCCLDLIFANAIMCPNRQDLLNPSFKGLPSDFHTADFTASEEPPCIIAVLCELHDGLLVEAKGIKEHYFKPYISKLFDRKILKGECLLDLSSFTDNSKAVNKEYEEYVLTVGDFDERIFLGADAEEEIGTPRKFTRDTPLGKLTAQANVEYNLQQHFEKKRSFAPSTPLTGRRYLREKEAVITPVASATQSVSRLQSIVAGLKNAPSDQLINIFESCVRNPVENIMKILKGIGETFCQHYTQSTDEQPGSHIDFAVNRLKLAEILYYKILETVMVQETRRLHGMDMSVLLEQDIFHRSLMACCLEIVLFAYSSPRTFPWIIEVLNLQPFYFYKVIEVVIRSEEGLSRDMVKHLNSIEEQILESLAWSHDSALWEALQVSANKVPTCEEVIFPNNFETGNGGNVQGHLPLMPMSPLMHPRVKEVRTDSGSLRRDMQPLSPISVHERYSSPTAGSAKRRLFGEDPPKEMLMDKIITEGTKLKIAPSSSITAENVSILPGQTLLTMATAPVTGTTGHKVTIPLHGVANDAGEITLIPLSMNTNQESKVKSPVSLTAHSLIGASPKQTNLTKAQEVHSTGINRPKRTGSLALFYRKVYHLASVRLRDLCLKLDVSNELRRKIWTCFEFTLVHCPDLMKDRHLDQLLLCAFYIMAKVTKEERTFQEIMKSYRNQPQANSHVYRSVLLKSIPREVVAYNKNINDDFEMIDCDLEDATKTPDCSSGPVKEERGDLIKFYNTIYVGRVKSFALKYDLANQDHMMDAPPLSPFPHIKQQPGSPRRISQQHSIYISPHKNGSGLTPRSALLYKFNGSPSKSLKDINNMIRQGEQRTKKRVIAIDSDAESPAKRVCQENDDVLLKRLQDVVSERANH
